Source: PMC4992831
These are yes or no findings as the source states them, for the method shown. For some of these results: Binding seen in cells or lysates may run through a third protein. Some entries that bind do so weakly or less than the wild type. Tags and fused reporters may be left off the sequences shown.

T1: Lis1 (pEGFP-C3 construct) (human) (UniProt P43034)
T1 sequence: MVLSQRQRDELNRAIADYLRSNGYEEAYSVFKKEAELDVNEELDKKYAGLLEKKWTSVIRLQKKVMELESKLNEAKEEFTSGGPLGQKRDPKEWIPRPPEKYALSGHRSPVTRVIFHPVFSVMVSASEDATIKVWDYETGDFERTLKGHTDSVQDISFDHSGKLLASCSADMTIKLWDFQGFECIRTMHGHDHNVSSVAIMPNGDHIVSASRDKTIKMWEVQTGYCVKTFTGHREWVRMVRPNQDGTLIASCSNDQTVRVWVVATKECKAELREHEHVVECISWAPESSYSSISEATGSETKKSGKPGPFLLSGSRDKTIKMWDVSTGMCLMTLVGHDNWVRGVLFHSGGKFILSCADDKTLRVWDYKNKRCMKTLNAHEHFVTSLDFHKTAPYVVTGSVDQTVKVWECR

B1: Flag-Ndel1 (protein, UniProt Q9GZM8 1-345)
chain: MDGEDIPDFSSLKEETAYWKELSLKYKQSFQEARDELVEFQEGSRELEAELEAQLVQAEQRNRDLQADNQRLKYEVEALKEKLEHQYAQSYKQVSVLEDDLSQTRAIKEQLHKYVRELEQANDDLERAKRATIVSLEDFEQRLNQAIERNAFLESELDEKESLLVSVQRLKDEARDLRQELAVRERQQEVTRKSAPSSPTLDCEKMDSAVQASLSLPATPVGKGTENTFPSPKAIPNGFGTSPLTPSARISALNIVGDLLRKVGALESKLAACRNFAKDQASRKSYISGNVNCGVLNGNGTKFSRSGHTSFFDKGAVNGFDPAPPPPGLGSSRPSSAPGMLPLSV
B2: Myc-Tara (protein, UniProt Q9H2D6-5 1-593)
chain: MTPDLLNFKKGWMSILDEPGEPPSPSLTTTSTSQWKKHWFVLTDSSLKYYRDSTAEEADELDGEIDLRSCTDVTEYAVQRNYGFQIHTKDAVYTLSAMTSGIRRNWIEALRKTVRPTSAPDVTKLSDSNKENALHSYSTQKGPLKAGEQRAGSEVISRGGPRKADGQRQALDYVELSPLTQASPQRARTPARTPDRLAKQEELERDLAQRSEERRKWFEATDSRTPEVPAGEGPRRGLGAPLTEDQQNRLSEEIEKKWQELEKLPLRENKRVPLTALLNQSRGERRGPPSDGHEALEKEVQALRAQLEAWRLQGEAPQSALRSQEDGHIPPGYISQEACERSLAEMESSHQQVMEELQRHHERELQRLQQEKEWLLAEETAATASAIEAMKKAYQEELSRELSKTRSLQQGPDGLRKQHQSDVEALKRELQVLSEQYSQKCLEIGALMRQAEEREHTLRRCQQEGQELLRHNQELHGRLSEEIDQLRGFIASQGMGNGCGRSNERSSCELEVLLRVKENELQYLKKEVQCLRDELQMMQKDKRFTSGKYQDVYVELSHIKTRSEREIEQLKEHLRLAMAALQEKESMRNSLAE
B3: GFP-Tara^Δ413–499 (protein, UniProt Q9H2D6-5)
chain: MTPDLLNFKKGWMSILDEPGEPPSPSLTTTSTSQWKKHWFVLTDSSLKYYRDSTAEEADELDGEIDLRSCTDVTEYAVQRNYGFQIHTKDAVYTLSAMTSGIRRNWIEALRKTVRPTSAPDVTKLSDSNKENALHSYSTQKGPLKAGEQRAGSEVISRGGPRKADGQRQALDYVELSPLTQASPQRARTPARTPDRLAKQEELERDLAQRSEERRKWFEATDSRTPEVPAGEGPRRGLGAPLTEDQQNRLSEEIEKKWQELEKLPLRENKRVPLTALLNQSRGERRGPPSDGHEALEKEVQALRAQLEAWRLQGEAPQSALRSQEDGHIPPGYISQEACERSLAEMESSHQQVMEELQRHHERELQRLQQEKEWLLAEETAATASAIEAMKKAYQEELSRELSKTRSLQQGPGRSNERSSCELEVLLRVKENELQYLKKEVQCLRDELQMMQKDKRFTSGKYQDVYVELSHIKTRSEREIEQLKEHLRLAMAALQEKESMRNSLAE
B4: Tara, pPC86 two-hybrid fusion (protein, UniProt Q9H2D6-5 1-593)
chain: MTPDLLNFKKGWMSILDEPGEPPSPSLTTTSTSQWKKHWFVLTDSSLKYYRDSTAEEADELDGEIDLRSCTDVTEYAVQRNYGFQIHTKDAVYTLSAMTSGIRRNWIEALRKTVRPTSAPDVTKLSDSNKENALHSYSTQKGPLKAGEQRAGSEVISRGGPRKADGQRQALDYVELSPLTQASPQRARTPARTPDRLAKQEELERDLAQRSEERRKWFEATDSRTPEVPAGEGPRRGLGAPLTEDQQNRLSEEIEKKWQELEKLPLRENKRVPLTALLNQSRGERRGPPSDGHEALEKEVQALRAQLEAWRLQGEAPQSALRSQEDGHIPPGYISQEACERSLAEMESSHQQVMEELQRHHERELQRLQQEKEWLLAEETAATASAIEAMKKAYQEELSRELSKTRSLQQGPDGLRKQHQSDVEALKRELQVLSEQYSQKCLEIGALMRQAEEREHTLRRCQQEGQELLRHNQELHGRLSEEIDQLRGFIASQGMGNGCGRSNERSSCELEVLLRVKENELQYLKKEVQCLRDELQMMQKDKRFTSGKYQDVYVELSHIKTRSEREIEQLKEHLRLAMAALQEKESMRNSLAE

Legend:
[1] = biological target: T1, Lis1 (pEGFP-C3 construct) (human); assay: co-IP; transfected cells (HEK293 stated for Fig. S3E, F), pair tested with or without a co-expressed third protein (Tara, Ndel1 or Flag-Trio^1118–1919); precipitating antibody not shown
[2] = biological target: Flag-Trio^1118–1919 (human) (UniProt O75962); assay: as above
[3] = biological target: Trio^1118–1919, pPC97 two-hybrid fusion (human) (UniProt O75962); assay: two-hybrid; direct test of co-transformants in pPC97 and pPC86, MaV203 yeast; colony-lifting assay for β-galactosidase expression

Row | Binder | binding [2] | other results
1 | B1 |  | binding [1]: binds
2 | B2 | binds | 
3 | B3 | binds | 
4 | B4 |  | binding [3]: binds
